# Patent US20080096967A1, “Formulations for Injection of Catecholic Butanes, Including Ndga Compounds, Into Animals” (priority 2005, published 2008)
# Further values from the same series stand in other lists.
# Assay: Solubility of M4N in water-soluble organic solvents (Table 20, visual inspection)
# Format: physicochemical
# Protocol: A 100 mL solution of M4N at a concentration of about 25 mg/mL in PEG 300 was made as follows. About 100 mL of PEG 300 were added to a glass beaker containing a stir bar. The beaker was placed on a magnetic plate and the stir bar was set to stir at medium speed. About 2.5 g of M4N were slowly added to the PEG 300 in the center of the beaker with the aid of a spatula to prevent M4N from sticking to the beaker wall. The M4N/PEG 300 mixture was stirred for 24 hr or until all M4N had dissolved or was uniformly suspended without any clumps being present. The M4N/PEG 300 mixture was optionally heated at about 60° C. for about 30 min. (or longer if a larger volume of solution was desired, for example, 1 hr at 60° C. for 500 mL of the M4N/PEG 300 mixture), or longer as needed to ensure complete dissolution of M4N. […] If crystals formed, the M4N/PEG 300 solution could be heated again at 60° C. for about 1 hr, with stirring, on a hot magnetic plate until all M4N was dissolved back in solution. The final M4N/PEG 300 solution was stored at room temperature and was kept protected from light. This process may be scaled up or down to obtain the requisite volume or concentration of M4N. Formulations containing M4N in other PEGs may be similarly made, such as, for example, by substituting PEG 300 in the process described above with PEG 400 or PEG 400 monolaurate.
# This process may be scaled up or down to obtain the requisite volume or concentration of M4N and the heating temperature may be increased or decreased to achieve dissolution of M4N. Formulations containing M4N in other water-insoluble lipids combined with non-ionic surfactants, ionic surfactants or water-soluble organic solvents may be similarly made, such as, for example, by substituting sesame oil or Tween® 20 in the process described above with corn oil, olive oil, soybean oil, peppermint oil, Tween® 80, d-alpha-tocopheryl polyethylene glycol 1000 succinate (TPGS), lecithin, PEG 300, PEG 400, PEG 400 monolaurate, glycerol, polyvinylpyrrolidone (“PVP”), propylene glycol (“PG”), or other solubilizing agents, and combinations thereof.
# [1] = Propylene Glycol 100%, M4N 1 mg/mL
# [2] = Propylene Glycol 100%, M4N 10 mg/mL
# [3] = Propylene Glycol 100%, M4N 20 mg/mL
compound,measurement,setting,value
"COc1ccc(C[C@@H](C)[C@@H](C)Cc2ccc(OC)c(OC)c2)cc1OC [Formulation M4N, meso-1,4-bis(3,4-dimethoxyphenyl)-2,3-dimethylbutane]",Dissolution After Rotation,"40% Propylene Glycol, 10% Ethanol, M4N 10 mg/mL",N
same,Dissolution After Rotation,"Ethanol 100%, M4N 1 mg/mL",Y
same,Dissolution After Rotation,"Ethanol 100%, M4N 10 mg/mL",N
same,Dissolution After Cool-Down,"Glycerol 100%, M4N 1 mg/mL",N
same,Dissolution After Rotation,"Glycerol 100%, M4N 1 mg/mL",N
same,Dissolution After Cool-Down,"Glycerol 100%, M4N 10 mg/mL",N
same,Dissolution After Rotation,"Glycerol 100%, M4N 10 mg/mL",N
same,Dissolution After Cool-Down,"Glycerol 100%, M4N 20 mg/mL",N
same,Dissolution After Rotation,"Glycerol 100%, M4N 20 mg/mL",N
same,Dissolution After Rotation,"PEG 300 33%, M4N 10 mg/mL",N
same,Dissolution After Cool-Down,"PEG 300 100%, M4N 25 mg/mL",Y
same,Dissolution After Rotation,"PEG 300 100%, M4N 25 mg/mL",N
same,Dissolution After Cool-Down,"PEG 300 100%, M4N 30 mg/mL",Y
same,Dissolution After Rotation,"PEG 300 100%, M4N 30 mg/mL",N
same,Dissolution After Cool-Down,"PEG 300 100%, M4N 40 mg/mL",Y
same,Dissolution After Rotation,"PEG 300 100%, M4N 40 mg/mL",N
same,Dissolution After Cool-Down,"PEG 300 100%, M4N 50 mg/mL",Y
same,Dissolution After Rotation,"PEG 300 100%, M4N 50 mg/mL",N
same,Dissolution After Cool-Down,"PEG 300 100%, M4N 100 mg/mL",N
same,Dissolution After Rotation,"PEG 300 100%, M4N 100 mg/mL",N
same,Dissolution After Rotation,"PEG 400 5%, M4N 10 mg/mL",N
same,Dissolution After Cool-Down,"PEG 400 100%, M4N 25 mg/mL",Y
same,Dissolution After Rotation,"PEG 400 100%, M4N 25 mg/mL",N
same,Dissolution After Cool-Down,"PEG 400 100%, M4N 30 mg/mL",Y
same,Dissolution After Rotation,"PEG 400 100%, M4N 30 mg/mL",N
same,Dissolution After Cool-Down,"PEG 400 100%, M4N 40 mg/mL",Y
same,Dissolution After Rotation,"PEG 400 100%, M4N 40 mg/mL",N
same,Dissolution After Cool-Down,"PEG 400 100%, M4N 50 mg/mL",Y
same,Dissolution After Rotation,"PEG 400 100%, M4N 50 mg/mL",N
same,Dissolution After Cool-Down,"PEG 400 100%, M4N 100 mg/mL",N
same,Dissolution After Rotation,"PEG 400 100%, M4N 100 mg/mL",N
same,Dissolution After Cool-Down,"PEG 400 monolaurate 100%, M4N 20 mg/mL",Y
same,Dissolution After Cool-Down,"PEG 400 monolaurate 100%, M4N 50 mg/mL",Y
same,Dissolution After Rotation,"PVP 15%, M4N 1 mg/mL",N
same,Dissolution After Rotation,"PVP 15%, M4N 10 mg/mL",N
same,Dissolution After Cool-Down,[1],Y
same,Dissolution After Rotation,[1],N
same,Dissolution After Cool-Down,[2],Y
same,Dissolution After Rotation,[2],N
same,Dissolution After Cool-Down,[3],Y
same,Dissolution After Rotation,[3],N
